Our source for the log2 fold change values is the supplement of paper PMC12819154, “High-throughput peptide-centric local stability assay extends protein–ligand identification to membrane proteins, tissues and bacteria” (Nature Structural & Molecular Biology, 2025).

Protein sequences, listed by entry. Tags and fused reporters are not part of them. Lines headed by an entry give the natural chain unless they say otherwise; changes in a name come on top.
UniProt Q14142: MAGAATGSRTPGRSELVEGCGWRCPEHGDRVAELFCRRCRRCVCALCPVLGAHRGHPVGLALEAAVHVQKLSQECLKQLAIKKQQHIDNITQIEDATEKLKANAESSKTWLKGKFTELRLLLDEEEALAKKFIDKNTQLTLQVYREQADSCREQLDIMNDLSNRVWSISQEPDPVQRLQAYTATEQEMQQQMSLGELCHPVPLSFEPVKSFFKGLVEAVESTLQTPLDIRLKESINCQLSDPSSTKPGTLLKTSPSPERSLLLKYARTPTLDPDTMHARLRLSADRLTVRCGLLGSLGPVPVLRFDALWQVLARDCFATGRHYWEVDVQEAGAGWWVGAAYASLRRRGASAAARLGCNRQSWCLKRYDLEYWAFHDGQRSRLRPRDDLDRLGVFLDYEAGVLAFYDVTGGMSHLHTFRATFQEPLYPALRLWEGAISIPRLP
UniProt Q13795: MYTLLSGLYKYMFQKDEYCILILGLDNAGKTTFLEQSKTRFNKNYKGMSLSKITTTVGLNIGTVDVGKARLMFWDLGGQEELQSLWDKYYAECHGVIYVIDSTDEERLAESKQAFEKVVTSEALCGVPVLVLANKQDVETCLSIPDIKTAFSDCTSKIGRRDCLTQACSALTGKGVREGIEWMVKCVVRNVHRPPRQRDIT
UniProt Q14011: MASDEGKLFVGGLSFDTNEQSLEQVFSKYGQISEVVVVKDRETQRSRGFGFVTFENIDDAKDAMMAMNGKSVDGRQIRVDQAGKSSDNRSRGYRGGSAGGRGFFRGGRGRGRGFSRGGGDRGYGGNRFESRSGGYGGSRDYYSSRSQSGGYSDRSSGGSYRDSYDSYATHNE
UniProt Q13505: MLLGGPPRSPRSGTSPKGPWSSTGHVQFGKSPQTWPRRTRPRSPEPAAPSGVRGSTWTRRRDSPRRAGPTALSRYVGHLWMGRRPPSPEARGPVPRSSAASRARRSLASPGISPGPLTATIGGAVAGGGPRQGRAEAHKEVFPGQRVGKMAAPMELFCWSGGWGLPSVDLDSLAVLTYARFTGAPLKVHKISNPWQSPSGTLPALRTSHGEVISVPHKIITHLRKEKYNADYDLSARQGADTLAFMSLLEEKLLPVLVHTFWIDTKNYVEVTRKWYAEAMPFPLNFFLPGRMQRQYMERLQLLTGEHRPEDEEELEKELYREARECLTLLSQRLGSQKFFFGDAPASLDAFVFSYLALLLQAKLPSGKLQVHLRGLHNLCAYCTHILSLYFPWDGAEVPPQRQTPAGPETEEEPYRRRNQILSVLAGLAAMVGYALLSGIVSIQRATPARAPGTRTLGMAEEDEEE
UniProt Q15027: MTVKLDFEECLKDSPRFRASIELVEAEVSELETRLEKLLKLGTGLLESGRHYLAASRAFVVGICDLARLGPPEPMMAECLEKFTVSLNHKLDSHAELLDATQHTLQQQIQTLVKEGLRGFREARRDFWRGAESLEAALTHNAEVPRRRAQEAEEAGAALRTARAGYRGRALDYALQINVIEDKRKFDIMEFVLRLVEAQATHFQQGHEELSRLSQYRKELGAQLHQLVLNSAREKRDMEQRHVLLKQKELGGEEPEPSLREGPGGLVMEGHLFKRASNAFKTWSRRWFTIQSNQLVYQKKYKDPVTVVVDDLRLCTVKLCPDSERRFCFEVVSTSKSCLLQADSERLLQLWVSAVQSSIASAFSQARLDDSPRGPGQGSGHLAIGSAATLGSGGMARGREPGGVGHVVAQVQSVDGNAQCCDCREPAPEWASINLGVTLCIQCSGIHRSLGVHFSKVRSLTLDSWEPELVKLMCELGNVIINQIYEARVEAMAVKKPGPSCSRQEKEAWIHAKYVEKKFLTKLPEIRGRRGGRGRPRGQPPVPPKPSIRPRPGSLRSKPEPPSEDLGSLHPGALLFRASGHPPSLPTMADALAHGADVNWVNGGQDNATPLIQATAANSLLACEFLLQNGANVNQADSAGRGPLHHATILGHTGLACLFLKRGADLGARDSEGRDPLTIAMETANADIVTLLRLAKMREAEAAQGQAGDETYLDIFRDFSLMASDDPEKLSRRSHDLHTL
UniProt Q14244: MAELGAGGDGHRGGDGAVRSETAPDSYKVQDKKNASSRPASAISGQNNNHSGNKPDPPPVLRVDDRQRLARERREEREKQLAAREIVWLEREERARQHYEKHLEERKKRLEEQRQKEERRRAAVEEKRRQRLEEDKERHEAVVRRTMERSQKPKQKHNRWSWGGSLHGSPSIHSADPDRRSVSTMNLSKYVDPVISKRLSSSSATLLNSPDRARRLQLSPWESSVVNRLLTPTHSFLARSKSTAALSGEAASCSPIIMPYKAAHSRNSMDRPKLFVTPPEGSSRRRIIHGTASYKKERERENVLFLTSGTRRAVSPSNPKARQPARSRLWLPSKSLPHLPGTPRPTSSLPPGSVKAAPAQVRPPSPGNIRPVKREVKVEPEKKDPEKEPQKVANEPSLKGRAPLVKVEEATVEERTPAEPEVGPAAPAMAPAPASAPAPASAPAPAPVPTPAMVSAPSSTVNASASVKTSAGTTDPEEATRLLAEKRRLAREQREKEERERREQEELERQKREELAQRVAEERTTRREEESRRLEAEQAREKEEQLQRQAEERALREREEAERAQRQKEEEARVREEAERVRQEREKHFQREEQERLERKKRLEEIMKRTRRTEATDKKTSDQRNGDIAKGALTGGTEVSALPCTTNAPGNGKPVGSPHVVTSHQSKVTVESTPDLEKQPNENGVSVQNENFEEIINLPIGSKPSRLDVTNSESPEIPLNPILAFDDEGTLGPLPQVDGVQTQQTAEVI
UniProt Q14681: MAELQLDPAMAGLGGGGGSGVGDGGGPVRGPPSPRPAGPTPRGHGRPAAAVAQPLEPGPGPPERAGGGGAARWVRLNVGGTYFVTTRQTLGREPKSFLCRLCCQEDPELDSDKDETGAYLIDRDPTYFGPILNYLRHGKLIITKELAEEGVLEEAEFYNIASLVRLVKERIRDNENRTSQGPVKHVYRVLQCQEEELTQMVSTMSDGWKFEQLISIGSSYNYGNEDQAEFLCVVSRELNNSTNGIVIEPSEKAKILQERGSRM
UniProt Q13315: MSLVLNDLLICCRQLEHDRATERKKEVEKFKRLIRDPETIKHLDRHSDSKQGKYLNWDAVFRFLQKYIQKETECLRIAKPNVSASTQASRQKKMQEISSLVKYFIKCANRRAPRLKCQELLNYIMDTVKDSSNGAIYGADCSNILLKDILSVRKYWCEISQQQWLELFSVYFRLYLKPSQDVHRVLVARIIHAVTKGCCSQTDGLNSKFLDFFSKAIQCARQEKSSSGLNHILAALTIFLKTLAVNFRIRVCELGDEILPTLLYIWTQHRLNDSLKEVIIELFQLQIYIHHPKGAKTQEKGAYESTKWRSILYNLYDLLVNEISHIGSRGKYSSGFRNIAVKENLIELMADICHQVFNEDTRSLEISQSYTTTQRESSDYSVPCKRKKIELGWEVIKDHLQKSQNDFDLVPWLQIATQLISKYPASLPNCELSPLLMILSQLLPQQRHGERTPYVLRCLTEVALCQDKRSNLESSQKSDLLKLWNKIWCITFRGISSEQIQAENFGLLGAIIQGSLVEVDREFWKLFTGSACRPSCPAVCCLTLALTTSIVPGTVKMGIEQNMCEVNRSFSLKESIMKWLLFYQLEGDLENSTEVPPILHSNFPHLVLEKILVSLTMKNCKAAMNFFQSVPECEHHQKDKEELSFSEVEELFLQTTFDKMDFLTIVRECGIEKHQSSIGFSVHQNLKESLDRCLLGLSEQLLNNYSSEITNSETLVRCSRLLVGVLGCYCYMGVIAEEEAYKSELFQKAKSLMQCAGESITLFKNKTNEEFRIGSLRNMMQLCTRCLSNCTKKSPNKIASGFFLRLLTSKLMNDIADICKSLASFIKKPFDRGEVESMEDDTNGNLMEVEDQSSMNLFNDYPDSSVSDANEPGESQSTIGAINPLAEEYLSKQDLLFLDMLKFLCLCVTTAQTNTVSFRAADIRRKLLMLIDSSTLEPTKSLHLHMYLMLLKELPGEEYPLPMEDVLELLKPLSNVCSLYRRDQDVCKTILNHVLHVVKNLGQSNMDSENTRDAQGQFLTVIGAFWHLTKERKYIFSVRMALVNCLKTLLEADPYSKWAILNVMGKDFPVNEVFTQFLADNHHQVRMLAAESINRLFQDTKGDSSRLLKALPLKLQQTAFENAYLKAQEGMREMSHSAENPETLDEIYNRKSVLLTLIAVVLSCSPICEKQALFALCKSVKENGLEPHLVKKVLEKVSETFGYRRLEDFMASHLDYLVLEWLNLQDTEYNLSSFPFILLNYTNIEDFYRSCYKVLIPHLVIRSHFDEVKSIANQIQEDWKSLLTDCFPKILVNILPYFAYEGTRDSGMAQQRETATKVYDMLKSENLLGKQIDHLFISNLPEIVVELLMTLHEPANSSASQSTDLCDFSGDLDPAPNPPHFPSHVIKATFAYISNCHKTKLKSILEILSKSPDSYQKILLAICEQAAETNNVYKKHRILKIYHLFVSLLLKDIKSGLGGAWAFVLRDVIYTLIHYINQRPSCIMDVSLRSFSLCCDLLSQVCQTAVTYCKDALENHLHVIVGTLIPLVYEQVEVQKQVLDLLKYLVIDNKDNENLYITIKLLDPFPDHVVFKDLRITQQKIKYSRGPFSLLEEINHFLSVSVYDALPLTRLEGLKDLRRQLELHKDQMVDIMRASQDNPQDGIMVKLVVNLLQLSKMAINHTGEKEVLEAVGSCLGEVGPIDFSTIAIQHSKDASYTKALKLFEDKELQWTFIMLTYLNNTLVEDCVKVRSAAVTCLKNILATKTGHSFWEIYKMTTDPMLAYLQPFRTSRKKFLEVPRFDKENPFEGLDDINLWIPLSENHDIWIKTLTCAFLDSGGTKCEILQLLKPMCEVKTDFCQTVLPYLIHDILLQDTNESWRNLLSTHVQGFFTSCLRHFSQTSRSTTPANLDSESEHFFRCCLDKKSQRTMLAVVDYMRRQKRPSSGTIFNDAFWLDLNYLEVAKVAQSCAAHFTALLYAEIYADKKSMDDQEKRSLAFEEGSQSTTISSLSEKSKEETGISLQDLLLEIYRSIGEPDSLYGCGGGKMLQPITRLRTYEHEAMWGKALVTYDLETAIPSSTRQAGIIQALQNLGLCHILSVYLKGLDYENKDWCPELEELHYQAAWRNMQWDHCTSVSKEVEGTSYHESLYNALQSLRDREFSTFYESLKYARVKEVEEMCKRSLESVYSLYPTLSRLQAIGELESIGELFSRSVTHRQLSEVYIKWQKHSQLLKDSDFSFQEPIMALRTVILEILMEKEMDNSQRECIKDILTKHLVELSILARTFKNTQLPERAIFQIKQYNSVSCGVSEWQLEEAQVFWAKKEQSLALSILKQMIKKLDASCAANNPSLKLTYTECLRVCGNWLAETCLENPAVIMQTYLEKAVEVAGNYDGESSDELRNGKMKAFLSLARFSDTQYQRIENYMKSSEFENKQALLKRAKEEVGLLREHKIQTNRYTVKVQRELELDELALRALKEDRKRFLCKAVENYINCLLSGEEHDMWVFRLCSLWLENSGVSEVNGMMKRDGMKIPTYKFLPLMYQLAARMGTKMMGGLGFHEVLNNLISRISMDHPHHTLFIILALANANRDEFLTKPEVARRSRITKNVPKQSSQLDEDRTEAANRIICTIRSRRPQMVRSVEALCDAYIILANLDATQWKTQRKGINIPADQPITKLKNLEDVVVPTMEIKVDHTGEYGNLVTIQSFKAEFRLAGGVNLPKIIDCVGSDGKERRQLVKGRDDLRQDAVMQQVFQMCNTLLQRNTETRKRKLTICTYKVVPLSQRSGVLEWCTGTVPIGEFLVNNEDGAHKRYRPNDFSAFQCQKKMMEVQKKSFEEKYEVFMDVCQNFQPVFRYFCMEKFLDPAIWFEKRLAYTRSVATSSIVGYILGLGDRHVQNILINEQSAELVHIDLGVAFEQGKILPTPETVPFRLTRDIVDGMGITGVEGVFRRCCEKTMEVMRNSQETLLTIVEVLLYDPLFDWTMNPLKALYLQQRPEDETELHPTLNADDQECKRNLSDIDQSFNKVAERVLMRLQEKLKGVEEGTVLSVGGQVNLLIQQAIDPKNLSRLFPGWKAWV
UniProt Q13946: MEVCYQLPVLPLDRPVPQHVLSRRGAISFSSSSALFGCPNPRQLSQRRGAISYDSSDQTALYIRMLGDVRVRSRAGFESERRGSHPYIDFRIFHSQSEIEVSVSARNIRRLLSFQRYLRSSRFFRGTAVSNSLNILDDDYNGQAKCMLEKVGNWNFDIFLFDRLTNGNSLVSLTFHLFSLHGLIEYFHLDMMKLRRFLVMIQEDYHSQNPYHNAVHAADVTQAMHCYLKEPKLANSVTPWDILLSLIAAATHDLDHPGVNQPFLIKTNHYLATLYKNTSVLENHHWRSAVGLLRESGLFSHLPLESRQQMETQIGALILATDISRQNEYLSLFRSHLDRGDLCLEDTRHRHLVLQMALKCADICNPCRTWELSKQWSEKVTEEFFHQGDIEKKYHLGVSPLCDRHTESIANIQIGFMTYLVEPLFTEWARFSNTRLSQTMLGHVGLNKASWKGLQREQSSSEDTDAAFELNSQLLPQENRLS

Some of the results follow. Most values lie at the level of the controls, where differences are scatter.

Compound in the assay: CN[C@@H]1C[C@H]2O[C@@](C)([C@@H]1OC)n1c3ccccc3c3c4c(c5c6ccccc6n2c5c31)C(=O)NC4 [staurosporine]
Put plainly: log2 fold change of tryptic peptide abundance, ligand vs vehicle (limited proteolysis) (log2 ratio); higher = more trypsin-susceptible (destabilized). The note with it: ligand concentration: 20 uM; sample: K562 cleared lysate; digestion: 4 min, 22 C (HT-PELSA RT4min, Orbitrap Astral).
As to “TTLL12 (peptide sequence: DCLASIAR, peptide start residue: 369) (UniProt Q14166)”, the log2 fold change amounted to 0.169.

Consider “DCTN2 (peptide sequence: ENLATVEGNFASIDER, peptide start residue: 380) (UniProt Q13561)”, for which the log2 fold change was -0.423.

Turning to “MTM1 (peptide sequence: YNSHSLENESIKR, peptide start residue: 9) (UniProt Q13496)”, the log2 fold change was -0.151.

In the case of “GAPVD1 (peptide sequence: SECSSDFGGK, peptide start residue: 787) (UniProt Q14C86)”, the log2 fold change is -0.212.

For the target “TRIM14 (peptide sequence: RYDLEYWAFHDGQR, peptide start residue: 366) (UniProt Q14142)”, the log2 fold change was 0.314.

Consider “DNAJC3 (peptide sequence: EVLSDPEMR, peptide start residue: 447) (UniProt Q13217)”, for which the log2 fold change worked out at 0.25.

Take “CUL3 (peptide sequence: NAYTMVLHK, peptide start residue: 60) (UniProt Q13618)”: the log2 fold change was 0.514.

Turning to “ARFRP1 (peptide sequence: TTFLEQSK, peptide start residue: 31) (UniProt Q13795)”, the log2 fold change is 0.344.

Regarding “CIRBP (peptide sequence: YGQISEVVVVK, peptide start residue: 29) (UniProt Q14011)”, the log2 fold change was -0.0952.

Regarding “ITPR1 (peptide sequence: SIHGVGELMTQVVLR, peptide start residue: 933) (UniProt Q14643)”, the log2 fold change is -0.774.

As to “ENDOG (peptide sequence: YGLPGLAQLK, peptide start residue: 67) (UniProt Q14249)”, the log2 fold change came to 0.101.

On to “MTX1 (peptide sequence: YNADYDLSAR, peptide start residue: 228) (UniProt Q13505)”, for which the log2 fold change came out at 0.435.

Consider “NCOA6 (peptide sequence: MVVPEDQSKK, peptide start residue: 1451) (UniProt Q14686)”, for which the log2 fold change amounted to 0.341.

Take “ACAP1 (peptide sequence: AQEAEEAGAALR, peptide start residue: 149) (UniProt Q15027)”: the log2 fold change was 0.375.

As to “KIAA0100 (peptide sequence: SDLNMQQQEEEEKAR, peptide start residue: 2199) (UniProt Q14667)”, the log2 fold change is -0.343.

As for “FLNC (peptide sequence: AFGPGLEGGLVNK, peptide start residue: 1355) (UniProt Q14315)”, the log2 fold change came out at 0.655.

On to “HLTF (peptide sequence: LSYPTFFPR, peptide start residue: 28) (UniProt Q14527)”, for which the log2 fold change was found to be 0.29.

As to “R3HDM1 (peptide sequence: SIEEREEEYQR, peptide start residue: 282) (UniProt Q15032)”, the log2 fold change is -0.496.

“GINS1 (peptide sequence: CTVAYLYDR, peptide start residue: 75) (UniProt Q14691)”: the log2 fold change is 0.263.

Regarding “FKBP5 (peptide sequence: FAEQDAKEEANK, peptide start residue: 416) (UniProt Q13451)”, the log2 fold change was -0.121.

With “MAP7 (peptide sequence: EIVWLEREER, peptide start residue: 85) (UniProt Q14244)”, the log2 fold change was -0.127.

As to “UniProt Q14696 (peptide sequence: LLEQWEKDDDIEEGDLPEHK, peptide start residue: 66)”, the log2 fold change is -0.103.

With “KCTD2 (peptide sequence: PAAAVAQPLEPGPGPPER, peptide start residue: 47) (UniProt Q14681)”, the log2 fold change stood at 0.615.

In the case of “ATM (peptide sequence: LIRDPETIK, peptide start residue: 33) (UniProt Q13315)”, the log2 fold change is 0.543.

Consider “TFDP1 (peptide sequence: VFIDQNLSPGK, peptide start residue: 16) (UniProt Q14186)”, for which the log2 fold change was 0.105.

For the target “UniProt Q14031 (peptide sequence: AGTPGEKGDR, peptide start residue: 938)”, the log2 fold change is -0.526.

Take “SLC29A2 (peptide sequence: SSQAQAQELETK, peptide start residue: 227) (UniProt Q14542)”: the log2 fold change turned out to be 0.75.

As to “UniProt Q13946 (peptide sequence: QNEYLSLFR, peptide start residue: 326)”, the log2 fold change is -0.263.

As to “CBX2 (peptide sequence: GSATPSGQESR, peptide start residue: 433) (UniProt Q14781)”, the log2 fold change was -0.21.

For the target “SLBP (peptide sequence: LLINDFGR, peptide start residue: 99) (UniProt Q14493)”, the log2 fold change was -0.0775.

On to “COX17 (peptide sequence: KPLKPCCACPETK, peptide start residue: 18) (UniProt Q14061)”, for which the log2 fold change was -0.322.

Take “AP3B2 (peptide sequence: KLLQMQPAQHGEIIK, peptide start residue: 467) (UniProt Q13367)”: the log2 fold change is 0.399.

As for “KCNAB2 (peptide sequence: MYPESTTGSPAR, peptide start residue: 1) (UniProt Q13303)”, the log2 fold change is -0.364.

On to “GANAB (peptide sequence: HHGPQTLYLPVTLSSIPVFQR, peptide start residue: 785) (UniProt Q14697)”, for which the log2 fold change amounted to 0.33.

Consider “MTMR2 (peptide sequence: VASFRSRGR, peptide start residue: 258) (UniProt Q13614)”, for which the log2 fold change stood at 0.241.
